The source of these data is paper PMC12763885.

Sequences of proteins named here, by UniProt entry; tags and fusion partners are left off.
UniProt O00429: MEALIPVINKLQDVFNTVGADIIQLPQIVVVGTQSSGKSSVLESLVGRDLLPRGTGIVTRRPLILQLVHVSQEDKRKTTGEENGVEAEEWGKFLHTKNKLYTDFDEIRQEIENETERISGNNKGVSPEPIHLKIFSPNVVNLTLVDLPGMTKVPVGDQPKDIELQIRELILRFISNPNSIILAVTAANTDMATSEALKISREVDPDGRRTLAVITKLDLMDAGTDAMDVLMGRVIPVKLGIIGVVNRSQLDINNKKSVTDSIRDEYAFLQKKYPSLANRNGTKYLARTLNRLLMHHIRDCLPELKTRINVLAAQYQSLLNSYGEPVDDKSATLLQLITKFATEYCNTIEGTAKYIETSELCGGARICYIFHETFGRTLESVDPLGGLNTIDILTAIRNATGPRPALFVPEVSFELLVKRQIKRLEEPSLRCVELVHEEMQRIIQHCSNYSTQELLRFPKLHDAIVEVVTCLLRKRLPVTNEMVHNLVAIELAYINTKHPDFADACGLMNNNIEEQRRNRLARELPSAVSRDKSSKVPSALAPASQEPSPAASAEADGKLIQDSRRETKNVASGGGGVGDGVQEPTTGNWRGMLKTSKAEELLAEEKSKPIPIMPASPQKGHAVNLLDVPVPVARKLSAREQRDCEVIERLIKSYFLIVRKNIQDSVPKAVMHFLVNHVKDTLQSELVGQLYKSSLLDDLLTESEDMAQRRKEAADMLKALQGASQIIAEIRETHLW

Assay [1] deals with T1, Phosphoglycerate mutase 5 (PGAM5), endogenous (human (endogenous in HepG2)) (UniProt Q96HS1).
T1 sequence: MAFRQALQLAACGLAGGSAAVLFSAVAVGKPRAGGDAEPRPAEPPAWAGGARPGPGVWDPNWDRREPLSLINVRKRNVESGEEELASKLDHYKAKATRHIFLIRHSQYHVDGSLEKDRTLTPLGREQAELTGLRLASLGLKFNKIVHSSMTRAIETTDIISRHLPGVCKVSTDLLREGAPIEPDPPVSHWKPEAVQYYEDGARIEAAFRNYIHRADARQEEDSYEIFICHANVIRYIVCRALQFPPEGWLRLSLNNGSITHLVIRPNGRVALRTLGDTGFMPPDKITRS
As to the kind of experiment: co-IP; HepG2 cells lysed in Western and IP lysis buffer; lysate with the corresponding antibody and Protein A + G beads overnight at 4 C; immunoblotting; cells overexpressing GSTK1, with GSTK1 knockdown, with stable Flag-PGAM5 or with transiently transfected point mutation plasmids. (In general: In western blotting, separated proteins are transferred to a membrane and probed.)

A further assay has as its target T2, Flag-PGAM5 (UniProt Q96HS1).
T2 sequence: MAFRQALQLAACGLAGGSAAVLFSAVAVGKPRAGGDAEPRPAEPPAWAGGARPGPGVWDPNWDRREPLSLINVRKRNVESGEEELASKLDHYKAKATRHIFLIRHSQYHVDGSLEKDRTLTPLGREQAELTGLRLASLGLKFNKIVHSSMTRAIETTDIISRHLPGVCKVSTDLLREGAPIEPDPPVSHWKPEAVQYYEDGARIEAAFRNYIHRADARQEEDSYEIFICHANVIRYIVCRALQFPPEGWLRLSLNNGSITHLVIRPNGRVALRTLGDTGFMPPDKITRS
Described as above.

Results are given in words; binding and its absence hold for the method and conditions named. In cells and extracts the contact can be indirect. Some entries that bind do so weakly or less than the wild type. For some assays here: Where a sequence is shown, tags or fusion partners need not be part of it.

Consider “Dynamin related protein 1 (DRP1), endogenous (from UniProt O00429 1-736)”, for which the binding entry in assay [1] is “binds”.

B1: Glutathione S-transferase kappa 1 (GSTK1), endogenous (protein, UniProt Q9Y2Q3 1-226)
chain: MGPLPRTVELFYDVLSPYSWLGFEILCRYQNIWNINLQLRPSLITGIMKDSGNKPPGLLPRKGLYMANDLKLLRHHLQIPIHFPKDFLSVMLEKGSLSAMRFLTAVNLEHPEMLEKASRELWMRVWSRNEDITEPQSILAAAEKAGMSAEQAQGLLEKIATPKVKNQLKETTEAACRYGAFGLPITVAHVDGQTHMLFGSDRMELLAHLLGEKWMGPIPPAVNARL
For B1, the binding result in the assay with Flag-PGAM5 is recorded as “binds”.
